No constants are given. Whether binding was seen depends on the method and setting. Some entries that bind do so weakly or less than the wild type.
B1: stefin A protein variant clone 234 (designed binder)
chain: MIPGGLSEAKPATPEIQEIVDKVKPQLEEKTGETYGKLEAVQYKTQVDAGTNYYIKVRAGDNKYMHLKVFKSLYFYRHWEDREDLVLTGYQVDKNKDDELTGF
B2: stefin A protein variant clone 235 (designed binder)
chain: MIPGGLSEAKPATPEIQEIVDKVKPQLEEKTGETYGKLEAVQYKTQVVSWVKPDNELGTNYYIKVRAGDNKYMHLKVFKSLWQVHDKQWLEDLVLTGYQVDKNKDDELTGF
B3: stefin A protein variant clone 236 (designed binder)
chain: MIPGGLSEAKPATPEIQEIVDKVKPQLEEKTGETYGKLEAVQYKTQVVNSLGVSEWVGTNYYIKVRAGDNKYMHLKVFKSLPYWYRKNNLEDLVLTGYQVDKNKDDELTGF
B4: stefin A protein variant clone 237 (designed binder)
chain: MIPGGLSEAKPATPEIQEIVDKVKPQLEEKTGETYGKLEAVQYKTQVVVYRIVSWWRGTNYYIKVRAGDNKYMHLKVFKSLASDIYLRIDEDLVLTGYQVDKNKDDELTGF
B5: stefin A protein variant clone 238 (designed binder)
chain: MIPGGLSEAKPATPEIQEIVDKVKPQLEEKTGETYGKLEAVQYKTQVVYYRQLKFNTGTNYYIKVRAGDNKYMHLKVFKSLFLHRKPQDREDLVLTGYQVDKNKDDELTGF
B6: stefin A protein variant clone 239 (designed binder)
chain: MIPGGLSEAKPATPEIQEIVDKVKPQLEEKTGETYGKLEAVQYKTQVVGWIKVDNVLGTNYYIKVRAGDNKYMHLKVFKSLWQDHHNVKREDLVLTGYQVDKNKDDELTGF
B7: stefin A protein variant clone 240 (designed binder)
chain: MIPGGLSEAKPATPEIQEIVDKVKPQLEEKTGETYGKLEAVQYKTQVVTAYYIHVNAGTNYYIKVRAGDNKYMHLKVFKSLPYGYRAKAPEDLVLTGYQVDKNKDDELTGF
B8: stefin A protein variant clone 241 (designed binder)
chain: MIPGGLSEAKPATPEIQEIVDKVKPQLEEKTGETYGKLEAVQYKTQVVVRVEPTPNDGTNYYIKVRAGDNKYMHLKVFKSLPLVQELWGFEDLVLTGYQVDKNKDDELTGF
B9: stefin A protein variant clone 242 (designed binder)
chain: MIPGGLSEAKPATPEIQEIVDKVKPQLEEKTGETYGKLEAVQYKTQVVDLNSSVWYQGTNYYIKVRAGDNKYMHLKVFKSLYWLLEIEHREDLVLTGYQVDKNKDDELTGF
B10: stefin A protein variant clone 243 (designed binder)
chain: MIPGGLSEAKPATPEIQEIVDKVKPQLEEKTGETYGKLEAVQYKTQVVFTYQISYTVGTNYYIKVRAGDNKYMHLKVFKSLRWRYPARKPEDLVLTGYQVDKNKDDELTGF
B11: stefin A protein variant clone 244 (designed binder)
chain: MIPGGLSEAKPATPEIQEIVDKVKPQLEEKTGETYGKLEAVQYKTQVVRENWYGEFAGTNYYIKVRAGDNKYMHLKVFKSLLYIYRHPNYEDLVLTGYQVDKNKDDELTGF
B12: stefin A protein variant clone 245 (designed binder)
chain: MIPGGLSEAKPATPEIQEIVDKVKPQLEEKTGETYGKLEAVQYKTQVVTALAWNTQAGTNYYIKVRAGDNKYMHLKVFKSLPWLYRQKSDEDLVLTGYQVDKNKDDELTGF
B13: stefin A protein variant clone 246 (designed binder)
chain: MIPGGLSEAKPATPEIQEIVDKVKPQLEEKTGETYGKLEAVQYKTQVVHIPALKVHAGTNYYIKVRAGDNKYMHLKVFKSLPYWYRHDQEEDLVLTGYQVDKNKDDELTGF
B14: stefin A protein variant clone 247 (designed binder)
chain: MIPGGLSEAKPATPEIQEIVDKVKPQLEEKTGETYGKLEAVQYKTQVVHHAYAAVYVGTNYYIKVRAGDNKYMHLKVFKSLPYWYRKYPDEDLVLTGYQVDKNKDDELTGF

Molecular target: T1, human CD40L (human, UniProt P29965 113-261, limits assumed)
T1 sequence (looked up): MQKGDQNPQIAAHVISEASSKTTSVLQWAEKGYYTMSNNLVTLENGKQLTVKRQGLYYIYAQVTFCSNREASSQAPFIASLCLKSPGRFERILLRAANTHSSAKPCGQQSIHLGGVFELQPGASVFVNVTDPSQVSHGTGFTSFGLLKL
Experiment: ELISA, bacterial lysate on plate-bound human CD40L, anti-Myc tag detection

binding, binds:
B1, B2, B3, B4, B5, B6, B7, B8, B9, B10, B11, B12, B13, B14

Source: patent US20260022160A1 (AFFYXELL THERAPEUTICS, published 2026)
